Reference: article PMC4792956
No constants are given. Whether binding was seen depends on the method and setting. In cells and extracts the contact can be indirect. A yes stands for co-enrichment or nearness to the bait. Other partners may have been found. A no says only that the protein was not detected with the bait. Where a sequence is shown, tags or fusion partners need not be part of it.

Protein sequences, listed by entry. Tags and fused reporters are not part of them.
UniProt Q9V3Z6: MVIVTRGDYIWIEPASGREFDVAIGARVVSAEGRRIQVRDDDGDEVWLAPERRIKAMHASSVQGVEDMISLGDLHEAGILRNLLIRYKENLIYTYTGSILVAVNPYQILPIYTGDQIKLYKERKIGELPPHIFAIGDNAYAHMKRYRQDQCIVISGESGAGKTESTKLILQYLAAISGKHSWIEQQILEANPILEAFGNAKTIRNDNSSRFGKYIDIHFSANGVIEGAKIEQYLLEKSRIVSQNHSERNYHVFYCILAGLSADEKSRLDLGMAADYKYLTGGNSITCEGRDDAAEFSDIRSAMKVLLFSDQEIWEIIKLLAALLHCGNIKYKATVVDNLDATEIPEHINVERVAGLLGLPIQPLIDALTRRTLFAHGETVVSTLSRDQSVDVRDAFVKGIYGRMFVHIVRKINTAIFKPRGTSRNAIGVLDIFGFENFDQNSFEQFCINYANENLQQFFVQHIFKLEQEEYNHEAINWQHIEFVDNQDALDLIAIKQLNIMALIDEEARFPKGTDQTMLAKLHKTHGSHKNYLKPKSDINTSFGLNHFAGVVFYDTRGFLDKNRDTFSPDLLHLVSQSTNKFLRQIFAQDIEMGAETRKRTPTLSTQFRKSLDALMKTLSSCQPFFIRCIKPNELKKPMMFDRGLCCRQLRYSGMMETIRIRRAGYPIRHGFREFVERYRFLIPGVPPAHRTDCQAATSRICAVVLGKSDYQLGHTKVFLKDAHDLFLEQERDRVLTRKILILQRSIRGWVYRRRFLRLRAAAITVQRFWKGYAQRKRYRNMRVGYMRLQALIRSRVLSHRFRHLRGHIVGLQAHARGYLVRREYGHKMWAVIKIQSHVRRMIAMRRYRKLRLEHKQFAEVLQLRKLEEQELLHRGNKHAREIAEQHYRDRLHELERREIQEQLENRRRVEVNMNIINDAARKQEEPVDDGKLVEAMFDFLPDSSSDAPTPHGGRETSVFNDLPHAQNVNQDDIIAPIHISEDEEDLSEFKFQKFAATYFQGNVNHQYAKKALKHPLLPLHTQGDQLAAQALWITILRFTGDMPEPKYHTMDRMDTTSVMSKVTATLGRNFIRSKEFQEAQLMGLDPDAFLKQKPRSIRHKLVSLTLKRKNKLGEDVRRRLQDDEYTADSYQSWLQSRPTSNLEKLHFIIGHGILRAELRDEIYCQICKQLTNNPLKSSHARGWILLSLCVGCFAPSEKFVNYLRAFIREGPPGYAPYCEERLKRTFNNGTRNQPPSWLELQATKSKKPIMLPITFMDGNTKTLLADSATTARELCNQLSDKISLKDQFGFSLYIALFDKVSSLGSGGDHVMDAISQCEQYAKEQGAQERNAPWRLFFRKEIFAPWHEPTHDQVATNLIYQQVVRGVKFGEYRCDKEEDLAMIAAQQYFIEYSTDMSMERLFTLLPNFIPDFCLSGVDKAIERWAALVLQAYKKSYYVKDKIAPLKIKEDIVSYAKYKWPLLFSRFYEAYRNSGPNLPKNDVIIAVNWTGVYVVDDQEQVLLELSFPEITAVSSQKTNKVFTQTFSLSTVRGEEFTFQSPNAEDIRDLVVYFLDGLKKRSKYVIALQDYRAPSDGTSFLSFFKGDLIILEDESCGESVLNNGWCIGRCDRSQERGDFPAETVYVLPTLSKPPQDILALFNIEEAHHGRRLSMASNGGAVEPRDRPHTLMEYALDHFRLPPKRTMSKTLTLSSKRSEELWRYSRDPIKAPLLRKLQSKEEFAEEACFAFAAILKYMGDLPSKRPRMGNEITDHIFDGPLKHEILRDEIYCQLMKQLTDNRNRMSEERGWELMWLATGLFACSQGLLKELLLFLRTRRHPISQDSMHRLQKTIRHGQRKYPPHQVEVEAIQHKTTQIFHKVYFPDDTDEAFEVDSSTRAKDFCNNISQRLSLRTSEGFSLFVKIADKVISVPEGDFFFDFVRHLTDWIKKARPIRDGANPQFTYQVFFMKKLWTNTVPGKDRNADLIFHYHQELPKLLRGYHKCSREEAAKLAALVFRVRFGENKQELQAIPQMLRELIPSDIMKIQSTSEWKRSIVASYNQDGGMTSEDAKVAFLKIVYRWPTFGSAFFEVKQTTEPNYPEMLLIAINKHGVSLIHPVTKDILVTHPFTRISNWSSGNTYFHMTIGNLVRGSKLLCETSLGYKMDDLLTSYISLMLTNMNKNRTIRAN

Columns and labels:
Assay in all cases: affinity purification with mass spectrometry; HA3x-tagged baits stably expressed in Drosophila S2 cells; large-scale affinity purification on α-HA resin, mass spectrometric analysis; minimum score of two unique peptides
HA3x-tagged RELISH = biological target: T1, HA3x-tagged RELISH (UniProt Q94527)
T1 sequence: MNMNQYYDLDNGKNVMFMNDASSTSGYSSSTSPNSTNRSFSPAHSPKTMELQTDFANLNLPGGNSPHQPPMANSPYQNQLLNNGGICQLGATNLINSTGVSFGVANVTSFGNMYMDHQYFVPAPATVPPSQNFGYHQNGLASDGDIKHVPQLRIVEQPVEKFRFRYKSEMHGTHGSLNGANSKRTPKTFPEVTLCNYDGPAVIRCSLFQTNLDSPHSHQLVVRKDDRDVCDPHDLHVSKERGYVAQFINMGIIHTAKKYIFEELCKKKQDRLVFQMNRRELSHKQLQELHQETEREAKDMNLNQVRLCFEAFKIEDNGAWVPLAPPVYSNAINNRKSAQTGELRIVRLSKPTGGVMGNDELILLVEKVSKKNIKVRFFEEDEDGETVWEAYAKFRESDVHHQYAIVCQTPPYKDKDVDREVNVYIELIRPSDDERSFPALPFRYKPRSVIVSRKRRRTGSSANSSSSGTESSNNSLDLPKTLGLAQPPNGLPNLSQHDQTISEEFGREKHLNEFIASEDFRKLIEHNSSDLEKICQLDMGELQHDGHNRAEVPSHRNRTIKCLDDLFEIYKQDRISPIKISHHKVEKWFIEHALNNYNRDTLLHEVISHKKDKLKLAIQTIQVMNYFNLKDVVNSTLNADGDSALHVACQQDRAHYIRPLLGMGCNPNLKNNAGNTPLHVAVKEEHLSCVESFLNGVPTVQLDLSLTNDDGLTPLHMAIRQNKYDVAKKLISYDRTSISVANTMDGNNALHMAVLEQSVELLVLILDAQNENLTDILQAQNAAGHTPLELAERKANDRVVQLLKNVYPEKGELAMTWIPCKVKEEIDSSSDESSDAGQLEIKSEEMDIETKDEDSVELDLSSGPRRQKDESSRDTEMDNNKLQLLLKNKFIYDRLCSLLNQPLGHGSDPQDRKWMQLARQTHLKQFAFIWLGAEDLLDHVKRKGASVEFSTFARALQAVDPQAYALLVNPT

HA3x-tagged DREDD = biological target: T2, HA3x-tagged DREDD (UniProt Q8IRY7)
T2 sequence: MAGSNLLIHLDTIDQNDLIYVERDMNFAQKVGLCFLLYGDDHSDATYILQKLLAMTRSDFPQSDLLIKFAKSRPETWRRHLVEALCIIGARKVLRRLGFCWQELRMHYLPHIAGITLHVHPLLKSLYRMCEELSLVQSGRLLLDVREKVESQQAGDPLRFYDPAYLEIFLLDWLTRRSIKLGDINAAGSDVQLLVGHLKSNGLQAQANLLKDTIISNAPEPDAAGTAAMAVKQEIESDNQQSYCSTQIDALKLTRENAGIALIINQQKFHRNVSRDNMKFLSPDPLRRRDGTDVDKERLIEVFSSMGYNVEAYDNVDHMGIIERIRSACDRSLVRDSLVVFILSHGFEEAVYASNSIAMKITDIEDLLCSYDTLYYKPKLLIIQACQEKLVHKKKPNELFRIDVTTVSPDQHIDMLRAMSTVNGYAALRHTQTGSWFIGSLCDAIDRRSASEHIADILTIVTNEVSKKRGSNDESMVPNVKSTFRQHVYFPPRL

HA3x-tagged IRD5 = biological target: T3, HA3x-tagged IRD5 (UniProt Q9VEZ5)
T3 sequence: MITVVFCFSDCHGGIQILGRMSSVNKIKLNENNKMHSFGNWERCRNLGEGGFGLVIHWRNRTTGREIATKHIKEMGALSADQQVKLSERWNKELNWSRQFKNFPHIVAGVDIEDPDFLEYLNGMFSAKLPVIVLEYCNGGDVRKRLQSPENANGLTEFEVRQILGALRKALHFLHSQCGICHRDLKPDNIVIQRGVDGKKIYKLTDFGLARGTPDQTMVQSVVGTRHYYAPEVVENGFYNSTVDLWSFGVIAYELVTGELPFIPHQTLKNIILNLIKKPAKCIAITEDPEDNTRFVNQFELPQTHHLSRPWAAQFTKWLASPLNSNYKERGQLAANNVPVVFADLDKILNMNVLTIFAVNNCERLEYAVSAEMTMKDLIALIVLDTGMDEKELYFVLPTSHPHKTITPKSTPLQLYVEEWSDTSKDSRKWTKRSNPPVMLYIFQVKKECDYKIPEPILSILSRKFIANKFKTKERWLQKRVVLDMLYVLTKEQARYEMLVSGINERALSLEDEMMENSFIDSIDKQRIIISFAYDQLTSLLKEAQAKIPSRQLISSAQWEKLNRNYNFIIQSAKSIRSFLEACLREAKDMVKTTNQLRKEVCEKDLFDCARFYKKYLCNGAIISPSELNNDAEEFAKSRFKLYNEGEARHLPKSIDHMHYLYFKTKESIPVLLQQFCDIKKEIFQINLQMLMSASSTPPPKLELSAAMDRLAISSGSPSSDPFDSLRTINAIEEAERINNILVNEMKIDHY

binding (HA3x-tagged RELISH): no binding
binding (HA3x-tagged DREDD): no binding
binding (HA3x-tagged IRD5): no binding
Sequence: CRINKLED (CK), endogenous in S2 cells (from UniProt Q9V3Z6 1-2167)
